Paper PMC8580996, “2-Oxoglutarate derivatives can selectively enhance or inhibit the activity of human oxygenases” (Nature Communications, 2021)
“And” between values parts separate entries of the source, which are not always exact repeats. Equal values may be shown once. Further values from the same series stand in other lists.

The chains behind the UniProt entries cited, without tags or fusion partners. Where a name states a change or a piece, a line headed by the entry shows the natural chain unless it says otherwise.
UniProt Q9NWT6: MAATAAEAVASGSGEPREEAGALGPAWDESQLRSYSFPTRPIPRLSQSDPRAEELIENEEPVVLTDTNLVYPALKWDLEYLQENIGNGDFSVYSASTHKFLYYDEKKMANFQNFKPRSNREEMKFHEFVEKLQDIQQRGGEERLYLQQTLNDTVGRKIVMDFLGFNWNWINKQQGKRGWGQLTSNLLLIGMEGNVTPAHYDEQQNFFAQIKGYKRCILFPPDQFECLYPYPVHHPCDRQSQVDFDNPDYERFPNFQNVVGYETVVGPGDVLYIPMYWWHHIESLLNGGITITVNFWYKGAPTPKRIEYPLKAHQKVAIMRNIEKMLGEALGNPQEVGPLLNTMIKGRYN

Biological target: FIH (Homo sapiens, UniProt Q9NWT6)
Assay: FIH steady-state kinetic parameters (SPE-MS, initial hydroxylation rates)
Type: biochemical
Method: Final 2OG/2OG derivative concentrations are given in Supplementary Figs. 5 and 6. Reactions were monitored with a rate of ~1 sample/40 s using the same SPE-MS configuration as described above. Data were analyzed as described above and the slopes of the initial reaction rates (Supplementary Figs. 5 and 6) fitted to a Michaelis–Menten plot using non-linear regression (GraphPad Prism 5). […]
determine kinetic parameters for 2OG derivatives (continues on the following page). Maximum velocities (vapp ) and Michaelis constants (Kapp) of FIH were determined in independent triplicates for 2OG and the 2OG […]
SPE-MS as described in the Methods section. […]
acid (LAA), and 20 μM ammonium iron(II) sulfate hexahydrate (FAS, (NH4)2Fe(SO4)2·6H2O) in buffer (50 mM […]
Tris, 50 mM NaCl, pH 7.5, 20° C). […]
data are provided as a Source Data file. […]
concentrations of 2OG; (b) hydroxylation rates used to determine kinetic parameters of FIH for 2OG; (c) time […]
3-methyl-2OG (1); (d) hydroxylation rates used to determine kinetic parameters of FIH for 1; (e) time course of […]
2OG (12); (f) hydroxylation rates used to determine kinetic parameters of FIH for 12; (g) time course of the FIH- […]
(h) hydroxylation rates used to determine kinetic parameters of FIH for 14; (i) time course of the FIH-catalyzed […]
(carboxycarbonyl)cyclopentane-1-carboxylic acid (22); (j) hydroxylation rates used to determine kinetic parameters of FIH for 22.
Supplementary Figure 6. Hydroxylation rates of FIH-catalyzed CA1-20 hydroxylations used to determine kinetic parameters for 2OG derivatives (continues on the following page). Maximum velocities (vapp ) and […]
ammonium iron(II) sulfate hexahydrate (FAS, (NH4)2Fe(SO4)2·6H2O) in buffer (50 mM Tris, 50 mM NaCl, pH […]
Source data are provided as a Source […]
of 2OG; (b) hydroxylation rates used to determine kinetic parameters of FIH for 2OG; (c) time course of the FIH-catalyzed hydroxylation reaction of the CA1-20 peptide for the shown concentrations of 3-methyl-2OG (1); (d) hydroxylation rates used to determine kinetic parameters of FIH for 1; (e) time course of the FIH -catalyzed hydroxylation reaction of the CA 1-20 peptide for the shown concentrations of 4 -methyl-2OG (12); (f) hydroxylation rates used to determine kinetic parameters of FIH for 12; (g) time course of the FIH-catalyzed hydroxylation reaction of the CA1-20 peptide for the shown concentrations of 4-ethyl-2OG (14); (h) hydroxylation rates used to determine kinetic parameters of FIH for 14; (i) time course of the FIH-catalyzed hydroxylation reaction of the CA1-20 peptide for the shown concentrations of 3-(carboxycarbonyl)cyclopentane-1-carboxylic acid (22); (j) hydroxylation rates used to determine kinetic parameters of FIH for 22.

CCC(CC(=O)C(=O)O)C(=O)O (stereo not drawn) [compound 14, 4-ethyl-2OG]
SPE-MS determined concentration of hydroxylated HIF-1a peptide (0.5 uM compound 14, time 4.89717 min): 0.05875 µM and 0.09521 µM and 0.09669 µM | SPE-MS determined concentration of hydroxylated HIF-1a peptide (0.5 uM compound 14, time 5.5955 min): 0.06431 µM and 0.101 µM and 0.1081 µM | SPE-MS determined concentration of hydroxylated HIF-1a peptide (0.5 uM compound 14, time 6.29533 min): 0.06659 µM and 0.1029 µM and 0.1101 µM | SPE-MS determined concentration of hydroxylated HIF-1a peptide (1 uM compound 14, time 4.19733 min): 0.088 µM and 0.1147 µM | SPE-MS determined concentration of hydroxylated HIF-1a peptide (1 uM compound 14, time 4.89717 min): 0.1407 µM and 0.1033 µM and 0.1222 µM | SPE-MS determined concentration of hydroxylated HIF-1a peptide (1 uM compound 14, time 5.5955 min): 0.152 µM and 0.1039 µM and 0.1267 µM | SPE-MS determined concentration of hydroxylated HIF-1a peptide (1 uM compound 14, time 6.29533 min): 0.1529 µM and 0.1148 µM and 0.1306 µM | SPE-MS determined concentration of hydroxylated HIF-1a peptide (2 uM compound 14, time 4.89717 min): 0.1353 µM and 0.1702 µM and 0.1718 µM | SPE-MS determined concentration of hydroxylated HIF-1a peptide (2 uM compound 14, time 5.5955 min): 0.1467 µM and 0.176 µM and 0.1861 µM | SPE-MS determined concentration of hydroxylated HIF-1a peptide (2 uM compound 14, time 6.29533 min): 0.1606 µM and 0.183 µM and 0.1888 µM | SPE-MS determined concentration of hydroxylated HIF-1a peptide (4 uM compound 14, time 4.89717 min): 0.1784 µM and 0.2029 µM and 0.2431 µM | SPE-MS determined concentration of hydroxylated HIF-1a peptide (4 uM compound 14, time 5.5955 min): 0.2027 µM and 0.2144 µM and 0.2572 µM | SPE-MS determined concentration of hydroxylated HIF-1a peptide (4 uM compound 14, time 6.29533 min): 0.2105 µM and 0.2205 µM and 0.2672 µM | SPE-MS determined concentration of hydroxylated HIF-1a peptide (8 uM compound 14, time 4.89717 min): 0.2053 µM and 0.2339 µM and 0.2323 µM | SPE-MS determined concentration of hydroxylated HIF-1a peptide (8 uM compound 14, time 5.5955 min): 0.2224 µM and 0.2567 µM and 0.2571 µM | SPE-MS determined concentration of hydroxylated HIF-1a peptide (8 uM compound 14, time 6.29533 min): 0.236 µM and 0.2596 µM and 0.2659 µM | SPE-MS determined concentration of hydroxylated HIF-1a peptide (16 uM compound 14, time 4.89717 min): 0.2173 µM and 0.2363 µM and 0.2445 µM | SPE-MS determined concentration of hydroxylated HIF-1a peptide (16 uM compound 14, time 5.5955 min): 0.234 µM and 0.2621 µM and 0.2714 µM | SPE-MS determined concentration of hydroxylated HIF-1a peptide (16 uM compound 14, time 6.29533 min): 0.2514 µM and 0.2668 µM and 0.2925 µM | SPE-MS determined concentration of hydroxylated HIF-1a peptide (32 uM compound 14, time 4.89717 min): 0.2305 µM and 0.2331 µM and 0.2603 µM | SPE-MS determined concentration of hydroxylated HIF-1a peptide (32 uM compound 14, time 5.5955 min): 0.2574 µM and 0.2518 µM and 0.275 µM | SPE-MS determined concentration of hydroxylated HIF-1a peptide (32 uM compound 14, time 6.29533 min): 0.2755 µM and 0.2695 µM and 0.2898 µM

CC(CC(=O)O)C(=O)C(=O)O (stereo not drawn) [compound 1, 3-methyl-2OG]
SPE-MS determined concentration of hydroxylated HIF-1a peptide (0.5 uM compound 1, time 4.19733 min): 0.09985 µM and 0.1367 µM and 0.0999 µM | SPE-MS determined concentration of hydroxylated HIF-1a peptide (0.5 uM compound 1, time 4.89717 min): 0.1183 µM and 0.1518 µM and 0.1027 µM | SPE-MS determined concentration of hydroxylated HIF-1a peptide (0.5 uM compound 1, time 5.5955 min): 0.1128 µM and 0.1571 µM and 0.1146 µM | SPE-MS determined concentration of hydroxylated HIF-1a peptide (0.5 uM compound 1, time 6.29533 min): 0.1153 µM and 0.1469 µM and 0.12 µM | SPE-MS determined concentration of hydroxylated HIF-1a peptide (1 uM compound 1, time 3.49667 min): 0.1617 µM and 0.1864 µM | SPE-MS determined concentration of hydroxylated HIF-1a peptide (1 uM compound 1, time 4.19733 min): 0.1549 µM and 0.1772 µM and 0.203 µM | SPE-MS determined concentration of hydroxylated HIF-1a peptide (1 uM compound 1, time 4.89717 min): 0.1638 µM and 0.199 µM and 0.2251 µM | SPE-MS determined concentration of hydroxylated HIF-1a peptide (1 uM compound 1, time 5.5955 min): 0.1763 µM and 0.1946 µM and 0.2233 µM | SPE-MS determined concentration of hydroxylated HIF-1a peptide (1 uM compound 1, time 6.29533 min): 0.1801 µM and 0.2001 µM and 0.2329 µM | SPE-MS determined concentration of hydroxylated HIF-1a peptide (2 uM compound 1, time 4.19733 min): 0.29 µM and 0.301 µM and 0.2508 µM | SPE-MS determined concentration of hydroxylated HIF-1a peptide (2 uM compound 1, time 4.89717 min): 0.3091 µM and 0.3314 µM and 0.2774 µM | SPE-MS determined concentration of hydroxylated HIF-1a peptide (2 uM compound 1, time 5.5955 min): 0.3128 µM and 0.3566 µM and 0.2878 µM | SPE-MS determined concentration of hydroxylated HIF-1a peptide (2 uM compound 1, time 6.29533 min): 0.3204 µM and 0.3536 µM and 0.2852 µM | SPE-MS determined concentration of hydroxylated HIF-1a peptide (4 uM compound 1, time 4.19733 min): 0.4238 µM and 0.439 µM and 0.3845 µM | SPE-MS determined concentration of hydroxylated HIF-1a peptide (4 uM compound 1, time 4.89717 min): 0.4637 µM and 0.4839 µM and 0.4289 µM | SPE-MS determined concentration of hydroxylated HIF-1a peptide (4 uM compound 1, time 5.5955 min): 0.4881 µM and 0.5234 µM and 0.4502 µM | SPE-MS determined concentration of hydroxylated HIF-1a peptide (4 uM compound 1, time 6.29533 min): 0.4868 µM and 0.5247 µM and 0.4418 µM | SPE-MS determined concentration of hydroxylated HIF-1a peptide (8 uM compound 1, time 4.19733 min): 0.5414 µM and 0.5327 µM and 0.4646 µM | SPE-MS determined concentration of hydroxylated HIF-1a peptide (8 uM compound 1, time 4.89717 min): 0.6039 µM and 0.5792 µM and 0.4997 µM | SPE-MS determined concentration of hydroxylated HIF-1a peptide (8 uM compound 1, time 5.5955 min): 0.6269 µM and 0.6162 µM and 0.5347 µM | SPE-MS determined concentration of hydroxylated HIF-1a peptide (8 uM compound 1, time 6.29533 min): 0.6572 µM and 0.6309 µM and 0.5551 µM | SPE-MS determined concentration of hydroxylated HIF-1a peptide (16 uM compound 1, time 4.19733 min): 0.7257 µM and 0.6409 µM and 0.6248 µM | SPE-MS determined concentration of hydroxylated HIF-1a peptide (16 uM compound 1, time 4.89717 min): 0.8191 µM and 0.7031 µM and 0.6964 µM | SPE-MS determined concentration of hydroxylated HIF-1a peptide (16 uM compound 1, time 5.5955 min): 0.8529 µM and 0.7673 µM and 0.7539 µM | SPE-MS determined concentration of hydroxylated HIF-1a peptide (16 uM compound 1, time 6.29533 min): 0.8659 µM and 0.793 µM and 0.7641 µM | SPE-MS determined concentration of hydroxylated HIF-1a peptide (32 uM compound 1, time 4.19733 min): 0.6566 µM and 0.7389 µM and 0.664 µM | SPE-MS determined concentration of hydroxylated HIF-1a peptide (32 uM compound 1, time 4.89717 min): 0.7196 µM and 0.8012 µM and 0.7239 µM | SPE-MS determined concentration of hydroxylated HIF-1a peptide (32 uM compound 1, time 5.5955 min): 0.7729 µM and 0.8791 µM and 0.7696 µM | SPE-MS determined concentration of hydroxylated HIF-1a peptide (32 uM compound 1, time 6.29533 min): 0.7734 µM and 0.9001 µM and 0.7605 µM
